Measured values as given in patent publication US20230203156A1, “ANTI-MDR1 ANTIBODIES AND USES THEREOF” (KENJOCKETY BIOTECHNOLOGY, INC., priority 2020, published 2023).
These are yes or no findings as the source states them, for the method shown. Some binding calls cover weakened binding; strength is not graded here.

Protein sequences, listed by entry. Tags and fused reporters are not part of them. Lines headed by an entry give the natural chain unless they say otherwise; changes in a name come on top.
UniProt P08183: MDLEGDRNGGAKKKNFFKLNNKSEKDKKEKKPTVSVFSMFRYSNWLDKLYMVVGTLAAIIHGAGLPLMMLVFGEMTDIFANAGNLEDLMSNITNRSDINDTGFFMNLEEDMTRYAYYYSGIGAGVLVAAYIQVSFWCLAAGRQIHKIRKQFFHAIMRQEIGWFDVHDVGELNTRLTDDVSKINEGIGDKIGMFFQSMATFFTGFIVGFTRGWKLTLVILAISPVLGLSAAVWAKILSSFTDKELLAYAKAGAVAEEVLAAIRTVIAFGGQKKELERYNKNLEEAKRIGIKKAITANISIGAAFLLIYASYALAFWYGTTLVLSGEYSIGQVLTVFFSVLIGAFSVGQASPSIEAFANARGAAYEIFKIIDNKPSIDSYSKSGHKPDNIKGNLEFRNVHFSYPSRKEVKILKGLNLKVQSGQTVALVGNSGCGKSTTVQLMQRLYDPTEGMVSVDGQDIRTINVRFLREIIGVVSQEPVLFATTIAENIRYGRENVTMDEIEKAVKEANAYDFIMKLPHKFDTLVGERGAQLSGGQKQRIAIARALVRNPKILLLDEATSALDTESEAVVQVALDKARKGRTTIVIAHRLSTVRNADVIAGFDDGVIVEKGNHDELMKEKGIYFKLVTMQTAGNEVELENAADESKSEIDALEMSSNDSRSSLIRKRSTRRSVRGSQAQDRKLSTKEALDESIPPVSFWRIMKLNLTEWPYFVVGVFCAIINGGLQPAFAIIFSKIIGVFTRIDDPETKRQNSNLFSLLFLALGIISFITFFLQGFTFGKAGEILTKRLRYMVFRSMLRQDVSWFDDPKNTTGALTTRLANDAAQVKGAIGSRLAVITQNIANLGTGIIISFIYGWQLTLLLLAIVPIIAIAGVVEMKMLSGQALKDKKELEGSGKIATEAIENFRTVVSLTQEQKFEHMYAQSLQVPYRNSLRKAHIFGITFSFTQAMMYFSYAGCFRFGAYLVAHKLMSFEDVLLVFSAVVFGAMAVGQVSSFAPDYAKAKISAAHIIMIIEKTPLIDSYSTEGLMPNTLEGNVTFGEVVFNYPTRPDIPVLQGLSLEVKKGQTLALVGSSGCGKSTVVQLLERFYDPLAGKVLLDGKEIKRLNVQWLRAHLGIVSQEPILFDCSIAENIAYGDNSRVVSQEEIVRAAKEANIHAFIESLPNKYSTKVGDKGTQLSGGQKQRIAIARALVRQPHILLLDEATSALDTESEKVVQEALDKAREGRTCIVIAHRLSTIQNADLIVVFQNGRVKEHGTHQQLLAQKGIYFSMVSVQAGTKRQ

B1: B1.261.huH2(VH3)-huL1 (antibody, human IgG1, V domains shown)
VH: EVQLVESGGGLIQPGGSLRLSCAVSGFSLTSYGVHWVRQPPGKGLEWLVVIWSDGSTTYNSALKSRLTISKDNSKNTVYLQMNSLRAEDTAVYYCARHGRWLLQRGGAMDYWGQGTMVTVSS
VL: DVQMTQSPSSLSASVGDRVTITCRASQNVGSYIAWYQQKPGKSPKALIYSASYRSSGVPSRFSGSGAGTDFTLTISSLQPEDFATYFCQQYNSYPLTFGGGTKLEIK
B2: KB1-1401 (15D3VH:MRK16VL::MRK16VL:5F9VH) (bispecific antibody, V domains shown)
VH 1: EVKVVESGGVLVRPGGSLKLSCAASGFTFSRYTMSWVRQTPEKRLEWVATISSGGGNTYYPDSVKGRFTVSRDNAMSSLYLQMSSLRSEDTALYYCARYGAGDAWFAYWGQGTLVTVSS
VH 2: QVQLVQSGAEVKKPGASVKVSCKASGYTFTNYNMHWVRQAPGQRLEWMGTIYPGNDDTSYNQKFKDRVTITADTSASTAYMELSSLRSEDTAVYYCARGGYRAMDYWGQGTLVTVSS
VL: DVLMTQTPVSLSVSLGDQASISCRSSQSIVHSTGNTYLEWYLQKPGQSPKLLIYKISNRFSGVPDRFSGSGSGTDFTLKISRVEAEDLGVYYCFQASHFPRTFGGGTKLEIK

Assays:
[1] = target: cynomolgus MDR1 (Macaca fascicularis) (Macaca fascicularis (cynomolgus)); test: flow cytometry
[2] = target: human MDR1 (multidrug resistance protein 1) (human) (UniProt P08183); test: flow cytometry
[3] = target: human MDR1 (multidrug resistance protein 1) (human) (UniProt P08183); test: flow cytometry on cells expressing human MDR1
[4] = target: cynomolgus MDR1 (Macaca fascicularis) (Macaca fascicularis (cynomolgus)); test: flow cytometry on cells expressing cynomolgus MDR1
[5] = target: human MDR1 (multidrug resistance protein 1) (human) (UniProt P08183); test: binding to MES-SA DX5 and A2780ADR cells, which express both ABCB1 and CD47

Binder	binding [1]	binding [2]	binding [3]	binding [4]	binding [5]
B1	binds	binds	binds	binds	–
B2	–	–	–	–	binds
